For 3 molecules, binding results are on record in PMC6881172, “Allosteric modulation of nucleoporin assemblies by intrinsically disordered regions” (Science Advances, 2019).

Results are given in words; binding and its absence hold for the method and conditions named. For some of these results: A result given as binding can be weak or reduced; the word gives no strength. For some of these results: Where a sequence is shown, tags or fusion partners need not be part of it.

Assay [1] concerns the target T1, Kap121 (full-length) (Saccharomyces cerevisiae, UniProt P32337 1-1089).
T1 construct: Kap121 (karyopherin), Saccharomyces cerevisiae, full-length; source: E. coli BL21-CodonPlus(DE3)-RIL, purified (HisTrap HP, TEV cleavage, HiTrap Q, Superdex 200); not shown: SUMO-His6, N-terminal, cleaved
T1 sequence (looked up): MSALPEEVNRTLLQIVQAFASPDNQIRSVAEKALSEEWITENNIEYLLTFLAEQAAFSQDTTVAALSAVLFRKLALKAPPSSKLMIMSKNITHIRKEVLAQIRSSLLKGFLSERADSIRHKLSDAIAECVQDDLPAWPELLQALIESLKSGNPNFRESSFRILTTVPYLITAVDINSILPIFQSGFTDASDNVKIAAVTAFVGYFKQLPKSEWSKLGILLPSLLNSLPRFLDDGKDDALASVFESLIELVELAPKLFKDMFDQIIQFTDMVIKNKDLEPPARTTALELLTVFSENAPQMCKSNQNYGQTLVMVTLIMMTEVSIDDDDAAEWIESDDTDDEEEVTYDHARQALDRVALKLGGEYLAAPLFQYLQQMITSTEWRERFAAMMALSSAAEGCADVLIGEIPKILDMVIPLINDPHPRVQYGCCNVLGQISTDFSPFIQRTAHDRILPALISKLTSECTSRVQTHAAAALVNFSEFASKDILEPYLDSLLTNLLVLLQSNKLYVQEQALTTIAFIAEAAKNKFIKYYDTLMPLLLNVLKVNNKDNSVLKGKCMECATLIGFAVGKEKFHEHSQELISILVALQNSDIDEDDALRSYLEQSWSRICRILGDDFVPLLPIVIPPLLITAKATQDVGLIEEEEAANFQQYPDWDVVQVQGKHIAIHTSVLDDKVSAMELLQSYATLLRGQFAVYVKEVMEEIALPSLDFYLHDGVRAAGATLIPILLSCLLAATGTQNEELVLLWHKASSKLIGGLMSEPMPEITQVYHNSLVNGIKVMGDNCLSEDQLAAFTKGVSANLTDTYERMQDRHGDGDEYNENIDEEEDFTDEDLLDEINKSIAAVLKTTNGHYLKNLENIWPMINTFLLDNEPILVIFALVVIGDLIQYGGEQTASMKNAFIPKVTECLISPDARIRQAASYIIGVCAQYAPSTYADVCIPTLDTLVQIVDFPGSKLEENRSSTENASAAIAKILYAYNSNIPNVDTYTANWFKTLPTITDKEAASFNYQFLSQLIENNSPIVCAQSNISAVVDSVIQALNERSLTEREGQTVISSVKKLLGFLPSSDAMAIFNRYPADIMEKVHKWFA
Nature of the assay: ITC; single titrations, single-site 1:1 binding model where fitted; 20 mM Hepes pH 7.5, 150 mM NaCl, 0.5 mM TCEP; 15°C; Kap121 150 μM with Nup53 fragments 15 μM; both purified.

Assay [2] addresses T2, Kap121 (full-length) (Saccharomyces cerevisiae) (UniProt P32337).
T2 sequence: T1 sequence (looked up)
As to the kind of experiment: negative-stain EM; gel filtration-purified Kap121 or its complex with 53C, 53core, or 53core and Nic96 (equimolar), 2% uranyl acetate, 2D classes and 3D maps (RELION); both purified.

In assay [3] the target is T2, Kap121 (full-length) (Saccharomyces cerevisiae). As to the kind of experiment: limited proteolysis; trypsin 1:25 (w/w) on ~5 μg 53C alone or in 1:1 molar complex with Kap121; 20 mM Hepes pH 7.5, 200 mM NaCl, 3 mM DTT; room temperature; 15 to 120 min; SDS-PAGE; both purified.
For assay [4], the target named is GST-tagged Nup53 C-terminal IDR (53C) (Saccharomyces cerevisiae). As to the kind of experiment: pull-down; partially purified GST-tagged Nup53 fragments (~10 μg) immobilized on glutathione-Sepharose 4B; purified Nic96, 157N, 157C or Kap121 added in ~1.5 molar excess; 20 mM Hepes pH 7.5, 150 mM NaCl, 3 mM DTT; 1 hour at 4°C; SDS-PAGE, Coomassie; both purified.

“Nup53 RRM domain (S. cerevisiae) (Saccharomyces cerevisiae) (domain or fragment)”: the binding result in assay [1] is “no binding (tested: Kap121 150 μM, Nup53 fragment 15 μM)”. Regarding “Nup53 C-terminal IDR (53C) (Saccharomyces cerevisiae) (domain or fragment)”, the binding result in assay [2] and in assay [3] was “binds” in each case.

B1: Kap121 (full-length) (protein, UniProt P32337 1-1089)
chain: T1 sequence (looked up)
For B1, the binding entry in assay [4] was “binds”.
